These are yes or no findings as the source states them, for the method shown. Binding seen in cells or lysates may run through a third protein. These calls come from enrichment with a bait or labelling near it, and not all partners need be listed. Sequences can lack the tags named with a protein.
Target: T1, Flotillin-1 (FLOT1), HA-tagged (UniProt O75955)
T1 sequence: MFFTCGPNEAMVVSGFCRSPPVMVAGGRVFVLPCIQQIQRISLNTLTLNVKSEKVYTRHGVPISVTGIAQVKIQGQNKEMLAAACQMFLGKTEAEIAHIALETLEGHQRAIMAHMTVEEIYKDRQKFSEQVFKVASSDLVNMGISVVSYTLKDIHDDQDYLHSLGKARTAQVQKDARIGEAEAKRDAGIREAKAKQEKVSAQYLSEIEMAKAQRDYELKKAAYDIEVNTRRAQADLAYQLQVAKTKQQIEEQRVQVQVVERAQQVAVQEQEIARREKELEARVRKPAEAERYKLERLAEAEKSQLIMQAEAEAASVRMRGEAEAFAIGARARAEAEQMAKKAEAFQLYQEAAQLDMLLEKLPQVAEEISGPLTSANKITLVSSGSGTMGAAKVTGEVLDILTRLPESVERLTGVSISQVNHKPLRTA
Experiment: affinity purification with mass spectrometry; AGS cells transfected with HA-FLOT1, collected after 72 h; immunoprecipitation with anti-HA antibody; complex sent to proteomic analysis

binding: binds
B1: Breast Cancer Antiestrogen Resistance 1 (BCAR1), in AGS cells (protein, UniProt P56945 1-870)
chain: MNHLNVLAKALYDNVAESPDELSFRKGDIMTVLEQDTQGLDGWWLCSLHGRQGIVPGNRLKILVGMYDKKPAGPGPGPPATPAQPQPGLHAPAPPASQYTPMLPNTYQPQPDSVYLVPTPSKAQQGLYQVPGPSPQFQSPPAKQTSTFSKQTPHHPFPSPATDLYQVPPGPGGPAQDIYQVPPSAGMGHDIYQVPPSMDTRSWEGTKPPAKVVVPTRVGQGYVYEAAQPEQDEYDIPRHLLAPGPQDIYDVPPVRGLLPSQYGQEVYDTPPMAVKGPNGRDPLLEVYDVPPSVEKGLPPSNHHAVYDVPPSVSKDVPDGPLLREETYDVPPAFAKAKPFDPARTPLVLAAPPPDSPPAEDVYDVPPPAPDLYDVPPGLRRPGPGTLYDVPRERVLPPEVADGGVVDSGVYAVPPPAEREAPAEGKRLSASSTGSTRSSQSASSLEVAGPGREPLELEVAVEALARLQQGVSATVAHLLDLAGSAGATGSWRSPSEPQEPLVQDLQAAVAAVQSAVHELLEFARSAVGNAAHTSDRALHAKLSRQLQKMEDVHQTLVAHGQALDAGRGGSGATLEDLDRLVACSRAVPEDAKQLASFLHGNASLLFRRTKATAPGPEGGGTLHPNPTDKTSSIQSRPLPSPPKFTSQDSPDGQYENSEGGWMEDYDYVHLQGKEEFEKTQKELLEKGSITRQGKSQLELQQLKQFERLEQEVSRPIDHDLANWTPAQPLAPGRTGGLGPSDRQLLLFYLEQCEANLTTLTNAVDAFFTAVATNQPPKIFVAHSKFVILSAHKLVFIGDTLSRQAKAADVRSQVTHYSNLLCDLLRGIVATTKAAALQYPSPSAAQDMVERVKELGHSTQQFRRVLGQLAAA

From article PMC10620819
